Test: LCMS drug levels in porcine serum from the internal jugular vein
Format: in vivo, pig
Conditions: released from implanted device; 0, 1, 2, 4, 24, 48, 72, 120, 240, 336 hrs; FIGS. 14 and 15
Description: Devices produced in accordance with the methods of EXAMPLE 1 were implanted into tonsillectomized pigs.
The specific LCMS method used for detection of Bupivacaine and Lidocaine has been validated in work by Hoizey et al (2005) (Hoizey G, et al. Sensitive bioassay of bupivacaine in human plasma by liquid-chromatography-ion trap mass spectrometry. Journal of pharmaceutical and biomedical analysis. 2005; 39:587-92).
The specific LCMS method used for detection of Bupivacaine and Lidocaine has been validated in work by Hoizey et al (2005).

CCN(CC)CC(=O)Nc1c(C)cccc1C [lignocaine]
drug level detected in serum (systemic uptake): < 5.6 microgram per ml
